From PubChem BioAssay AID504834 (National Center for Advancing Translational Sciences (NCATS), 2011)
Hit rate of the full screen: of about 320,000 compounds, about 22,000 (6.9%) were called active. Inconclusive means that the source gave no clear call. Such entries were picked first, then a sample of the others. The call rests on the fitted dose curve; in most records, active means well fitted inhibition curve with a large enough effect; inconclusive means small, poorly fitted or top-dose-only effect, or another doubt; inactive means no such curve, though single readings can be large or run the other way. Where the call is inconclusive, the potency comes from a doubtful curve fit.

Experiment: Primary qHTS for delayed death inhibitors of the malarial parasite plastid, 96 hour incubation
Conditions: P. falciparum luciferase reporter growth; series mostly up to 28.7 µM; activity change, negative = inhibition: at the top concentration
Outline: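 Cell-based qHTS: luciferase-tagged P. falciparum in erythrocytes (2% hematocrit, 0.05% parasitemia final) incubated with compounds for 96 hours, 37 C, 5% CO2; luciferase detection reagent then added and luminescence measured.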
On the % scale 0 is the no-effect control and ±100 the full control effect; potency means the concentration at half of the fitted maximal effect.

Compound	Potency	activity change, negative = inhibition
COc1ccc(CNc2ncnc3cc(OC)c(OC)cc23)cc1OC	inconclusive: 18.5 µM [inhibitor, single point]	
CCc1ccccc1N1CC(C(=O)Nc2cc(S(=O)(=O)N3CCCC3)ccc2Cl)CC1=O (stereo unspecified)	inconclusive: 11.7 µM [inhibitor, single point]	
COc1ccccc1Oc1ccc2c(c1)C(=O)N(c1ccc(Br)c3cccnc13)C2=O	inconclusive: 11.7 µM [inhibitor, single point]	
CC(C)(C)NC(=S)Nc1cccc(C(F)(F)F)c1	inconclusive: 13.1 µM [inhibitor, single point]	
COc1ccc(C(NC(=O)C(C)C)c2c(O)ccc3ccccc23)cc1OC (stereo unspecified)		inactive: -4.24%
Cn1nnc(NC(=O)CSc2ncn[nH]2)n1	inconclusive: 18.5 µM [inhibitor, single point]	
COc1cccc(C2(C)NC(=O)N(CC(=O)c3cc(C)n(C4CC4)c3C)C2=O)c1 (stereo unspecified)	inconclusive: 3.29 µM [inhibitor, full curve]	
CC(C)c1nc(SCC(=O)NCC2CCCO2)c2c(=O)n(C)c(=O)n(C)c2n1 (stereo unspecified)	inconclusive: 18.5 µM [inhibitor, single point]	
CCn1cnc2scc(-c3ccc(OC)cc3)c2c1=O	active: 10.4 µM	
COCCNc1nc2nonc2nc1NC(C)c1ccccc1Cl (stereo unspecified)	inconclusive: 1.04 µM [inhibitor, full curve, poor fit]	
CC(NC(=O)Cc1cccs1)C(c1cccs1)N1CCN(c2ccccc2F)CC1 (stereo unspecified)	inconclusive: 1.65 µM [inhibitor, full curve, poor fit]	
Cc1cccc(CN2CCC(CNC(=O)Nc3ccc(F)c(Cl)c3)CC2)c1		inactive: 6.46%
O=C(NCCc1ccccc1)c1ccc(CS(=O)(=O)Cc2ccccc2F)o1	inconclusive: 8.28 µM [inhibitor, partial curve, poor fit]	
CCN(C(=O)c1ccco1)c1nc(-c2ccc(OC)cc2)cs1	inconclusive: 18.5 µM [inhibitor, single point]	
COC(=O)c1cccc(N(CC(=O)NCC2CCCO2)C(=O)CCC(=O)Nc2cc(C)on2)c1 (stereo unspecified)	inconclusive: 13.1 µM [inhibitor, partial curve, poor fit]	
COc1ccc(-n2nnc3c(=O)n(Cc4cc(C)ccc4C)cnc32)cc1	active: 5.22 µM	
Cc1ccc(CNC(=S)NC2CCC(C(C)(C)C)CC2)cc1 (stereo unspecified)	active: 11.7 µM	
Cc1ccc(NCc2nc3ccccc3n2C)cc1	inconclusive: 1.47 µM [inhibitor, full curve]	
CS(=O)(=O)c1ccc(Cl)c(NC(=O)C2CCN(S(=O)(=O)c3cccs3)CC2)c1	inconclusive: 8.28 µM [inhibitor, partial curve, poor fit]	
Cc1nc(N2CCN(C)CC2)c2cc(-c3ccccc3)sc2n1	inconclusive: 18.5 µM [inhibitor, single point]	
CC(C)(C)OC(=O)CNC(=O)c1[nH]cnc1C(=O)Nc1ccc(CNC(=O)OC(C)(C)C)cc1	active: 13.1 µM	
C[C@]12CCC(=O)CC1CCC1C2CC[C@]2(C)C(OC(=O)CCC(=O)O)CCC12 (stereo partly specified)		inactive: 22%
Cc1c(C#N)c(NC(=O)C(C)C)n(Cc2ccccc2)c1C	inconclusive: 18.5 µM [inhibitor, single point]	

Compound	Potency	activity change, negative = inhibition
Cc1ccc(NS(=O)(=O)c2ccc(OCC(N)=O)cc2)cc1		inactive: 78.9%
COc1cccc(CC(=O)Nc2cc(S(=O)(=O)N3CCCCC3)ccc2C)c1	inconclusive: 8.28 µM [inhibitor, single point]	
COc1ccccc1C1CC(c2cccs2)=NN1C(=O)CCC(=O)O (stereo unspecified)	inconclusive: 3.29 µM [inhibitor, single point]	
COc1ccccc1N1CCN(C(=O)c2cc(-c3ccc4c(c3)OCO4)on2)CC1	inconclusive: 0.0029 µM [inhibitor, full curve, poor fit]	
O=C(NC1CCCCC1)C(c1ccncc1)N(C(=O)c1ccco1)c1ccc(F)cc1 (stereo unspecified)		inactive: 0%
CCOc1ccc(CCNC(=O)C2CCN(S(=O)(=O)N3CCOCC3)CC2)cc1OCC	inconclusive: 10.4 µM [inhibitor, partial curve, poor fit]	
O=C(Cn1c(NCCCO)nc2ccccc21)c1ccc(Cl)cc1		inactive: 0%
COc1ccc(C2CC(c3ccccc3)=NN2C(=O)COC(=O)/C=C/c2ccc(O)c(OC)c2)cc1 (stereo unspecified)	inconclusive: 5.22 µM [inhibitor, partial curve]	
CCOc1cc2c(cc1OCC)-n1cccc1C(c1ccccc1OC)NC2 (stereo unspecified)		inactive: 0%
CCN1C(=O)c2ccc(-c3nc4ccccc4c(=O)o3)cc2C1=O		inactive: -25.6%
CC(C)CN1CCN(Cc2cccn2-c2ccccn2)CC1CCO (stereo unspecified)	active: 8.28 µM	
CCOc1ccc([C@@H]2CC=C(C(=O)O)CN2S(=O)(=O)c2ccc(C)cc2)cc1	inconclusive: 18.5 µM [inhibitor, single point]	
COc1ccc(C(O)P(=O)(OCC(C)C)OCC(C)C)c(OC)c1 (stereo unspecified)		inactive: -17.2%
Cc1cccc(CNS(=O)(=O)c2ccc(-c3cnc(C4CC4)o3)cc2)c1	inconclusive: 0.0738 µM [inhibitor, full curve, poor fit]	
COC(=O)c1ccccc1NC(=O)N1CCN(c2ccc(F)cc2)CC1	active: 4.15 µM	
CN(CC(=O)Nc1cccc(F)c1)C(=O)c1cccc2ccccc12	inconclusive: 18.5 µM [inhibitor, single point]	
COc1ccc(C(=O)OCC(=O)Nc2ccc(F)c(F)c2)cc1OC		inactive: -16.8%
O=C(CNC(=O)c1ccc(Br)o1)Nc1cccc(S(=O)(=O)N2CCCC2)c1	inconclusive: 18.5 µM [inhibitor, single point]	
COCCN(Cc1ccccc1)C(=O)c1c(C)nn(-c2ccccc2)c1C	inconclusive: 18.5 µM [inhibitor, single point]	
CCOc1ccc(CN2CCN(Cc3cccn3-c3nccs3)CC2CCO)cc1 (stereo unspecified)	inconclusive: 11.7 µM [inhibitor, single point]	
S=C(Nc1ccc(Cl)cc1Cl)N1CCN(c2ccccn2)CC1	inconclusive: 11.7 µM [inhibitor, single point]	
O=C(N(Cc1ccccc1)c1ccccn1)C12CC3CC(CC(C3)C1)C2	inconclusive: 9.28 µM [inhibitor, partial curve, poor fit]	
O=C(/C=C/c1ccc(F)cc1)NC(=S)NNC(=O)c1cccnc1		inactive: 41%
NC(=O)COC(=O)c1ccccc1OCc1ccccc1	inconclusive: 4.15 µM [inhibitor, single point]	

Compound	Potency	activity change, negative = inhibition
NC(=O)c1cc2c(s1)-c1cc(Cl)ccc1SC2		inactive: 61.6%
O=C(c1cccc(S(=O)(=O)N2CCOCC2)c1)N(CCc1ccccc1)Cc1ccccc1	inconclusive: 11.7 µM [inhibitor, single point]	
COCC(C)NC(=O)CSc1nc2nn(-c3ccccc3)c(=O)c-2c2n1CCCCC2 (stereo unspecified)	inconclusive: 1.47 µM [inhibitor, full curve, poor fit]	
Cc1cccc(C2C3=C(Nc4[nH]n(-c5ccccc5)c(=O)c42)c2ccccc2C3=O)c1 (stereo unspecified)	inconclusive: 7.38 µM [inhibitor, partial curve]	
Cc1ccc(-c2nnnn2C2C/C(=N\NC(N)=S)C3OCC2O3)cc1 (stereo unspecified)	inconclusive: 0.928 µM [inhibitor, full curve, poor fit]	
CN(CCOc1ccccc1)C(=O)c1cc(COc2c(F)cccc2F)on1	inconclusive: 0.037 µM [inhibitor, full curve, poor fit]	
CCCC[n+]1ccn(-c2nc3ccccc3nc2[N-]S(=O)(=O)c2ccc(Cl)cc2)c1		inactive: -23.5%
O=C(Nc1cc(Cl)ccc1N1CCOCC1)C1=COCCO1		inactive: -5.73%
O=C(Nc1cccc(F)c1)N(Cc1ccc(Cl)cc1)CC(O)C(F)(F)F (stereo unspecified)	active: 2.62 µM	
O=C(COc1ccccc1Cl)NNC(=O)c1ccc2c(=O)n3c(nc2c1)CCC3		inactive: -28%
Cc1csc(Nc2ccc(Cl)cc2)[n+]1-c1ccc(Cl)cc1	inconclusive: 18.5 µM [inhibitor, single point]	
CN1C(=CC=C2C=C(I)C(=O)C(I)=C2)C(C)(C)c2ccccc21	active: 2.08 µM	
COc1ccc(CCNC(=O)C(C)OC(=O)c2cccs2)cc1OC (stereo unspecified)	inconclusive: 11.7 µM [inhibitor, single point]	
CC(C)(C)c1cc(-c2n[nH]c(=S)n2-c2ccc(Cl)cc2)n[nH]1		inactive: 17.1%
CCOC(=O)CC(NC(=O)C(Cc1ccc(N(CCCl)CCCl)cc1)NC(C)=O)C(=O)OCC (stereo unspecified)		inactive: 10.6%
CCN(CC)CCOC(=O)C(O)(c1ccccc1)c1ccccc1	inactive	
COC(=O)c1cn(Cc2c(C)cc(C)cc2C)nn1	inconclusive: 9.28 µM [inhibitor, single point]	
COC(=O)CCCC1=CC2=C(c3ccccc3)C(=O)C(C)(OC(=O)C3CCCC3)C(=O)C2=CN1CCCCO (stereo unspecified)	inconclusive: 18.5 µM [inhibitor, single point]	
c1ccc(SCCN2CCc3ccccc3C2)cc1	inconclusive: 4.15 µM [inhibitor, partial curve, poor fit]	
O=C1Cc2ccccc2Sc2ccccc21		inactive: 41.5%
O=C(Nc1ccccc1O)c1cc(S(=O)(=O)N2CCOCC2)c(Cl)cc1Cl		inactive: 147%
CC(C)c1ccc(SCc2noc(C(=O)NCC3CCCO3)c2C(=O)O)cc1 (stereo unspecified)	inconclusive: 4.15 µM [inhibitor, single point]	
Cc1nc(Cl)sc1C(=O)Nc1cccc2ccccc12		inactive: -4.13%

4 of these compounds in another layout.
COc1ccccc1N1CCN(C(=O)c2cc(-c3ccc4c(c3)OCO4)on2)CC1
  Potency: inconclusive: 0.0029 µM [inhibitor, full curve, poor fit]
COc1ccc(C(O)P(=O)(OCC(C)C)OCC(C)C)c(OC)c1 (stereo unspecified)
  activity change, negative = inhibition: inactive: -17.2%
COc1ccc(C(=O)OCC(=O)Nc2ccc(F)c(F)c2)cc1OC
  activity change, negative = inhibition: inactive: -16.8%
CCCC[n+]1ccn(-c2nc3ccccc3nc2[N-]S(=O)(=O)c2ccc(Cl)cc2)c1
  activity change, negative = inhibition: inactive: -23.5%
